Measurements: PMC7819943, “Rice protein-binding microarrays: a tool to detect cis-acting elements near promoter regions in rice”
Some of the results follow.

Sequences of proteins named here, by UniProt entry; tags and fusion partners are left off.
UniProt Q0JBA9, entry or part of it: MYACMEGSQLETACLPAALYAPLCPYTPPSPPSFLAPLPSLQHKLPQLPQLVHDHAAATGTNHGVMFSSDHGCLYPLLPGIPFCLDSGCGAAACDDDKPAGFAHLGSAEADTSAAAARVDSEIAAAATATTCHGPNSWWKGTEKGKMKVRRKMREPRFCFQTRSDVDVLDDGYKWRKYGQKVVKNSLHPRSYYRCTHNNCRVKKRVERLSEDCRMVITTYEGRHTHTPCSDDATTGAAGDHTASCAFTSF

biological target: OsWRKY34 (Oryza sativa, UniProt Q0JBA9 1-250); assay: protein-binding microarray (RPBM); PBS, 2% BSA, 51.3 ng/ul salmon testes DNA, 50 uM zinc acetate, 200 nM TF, 25 C, 1 h; high values mean tight binding; conditions: protein: recombinant; tags: N-terminal polyhistidine and DsRed monomer fusion (pET32a); label: CyDye5-dUTP incorporated in the synthesized complementary strand; 3' TTTTT single-stranded linker to array surface; dsDNA, one strand shown
Summary of the method: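 An Axon 4000B scanner gave the binding signal as per-feature fluorescence intensity in arbitrary units. This followed washing of a custom Agilent array that had been incubated for 1 h at 25 °C with 200 nM protein in PBS, 2% BSA, salmon testes DNA and 50 µM zinc acetate. The proteins were transcription factors fused at the N-terminus to polyhistidine and DsRed, expressed in E. coli BL21-CodonPlus and purified on Ni–NTA.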

| Sequence | binding signal |
| --- | --- |
| TTCGTTAACAACCTCGACTACTCCATATGCCCAATTAATTCGGAGTCACCTAGTGCAG | 8230 fluorescence intensity (a.u.) |
| CCTCCTCGTCCACCTCCTCTCCCGCATCGCCGCCGCCGCGCGGAGTCACCTAGTGCAG | 8980 fluorescence intensity (a.u.) |
| TTTTCTATACTGTATTTTGTGTCATTTTCAATCATTGATTCGGAGTCACCTAGTGCAG | 14400 fluorescence intensity (a.u.) |
| CATTGCCAGTTTTGTTGCTACTCCACTGATATGGTTTTTCCGGAGTCACCTAGTGCAG | 10800 fluorescence intensity (a.u.) |
| TCTTATTCCTTGTCCCAACTCCAACTGCAGAGGAAGCTACCGGAGTCACCTAGTGCAG | 9350 fluorescence intensity (a.u.) |
| ATCAGAACCGCCACTCAAGTTTCAGTAGTTTGGTCTTGTACGGAGTCACCTAGTGCAG | 10800 fluorescence intensity (a.u.) |
| AGAAGATCAGAACAAAGACAAATAAAGAATGCTTCACGGGCGGAGTCACCTAGTGCAG | 10600 fluorescence intensity (a.u.) |
| TTTTACCTCTCTCGTTTGTCGGATAGTAAATTTATTTTTACGGAGTCACCTAGTGCAG | 9090 fluorescence intensity (a.u.) |
| CCTTGTGCTGTCGTCGTCGACCTACCCTACCCCGTGGAGTCGGAGTCACCTAGTGCAG | 8210 fluorescence intensity (a.u.) |
| GAGGGGTTTTTTTTTTTCTTTGTGTTCTCAATTTTGCGTGCGGAGTCACCTAGTGCAG | 14300 fluorescence intensity (a.u.) |
| CCCTCCGCTGAGGTTGCGGTTGATGATCTTTCATCAGTGACGGAGTCACCTAGTGCAG | 8590 fluorescence intensity (a.u.) |
| CACCCGATCCACGTGCCTCGTGGGGTTGGTTTGGTTTGGACGGAGTCACCTAGTGCAG | 8440 fluorescence intensity (a.u.) |
| ACCTCGCGCTTTCTTGGCCGCTTCGCCCGCGACGCAACGGCGGAGTCACCTAGTGCAG | 10300 fluorescence intensity (a.u.) |
| GTGGGTGTGGCAATAAAGGTGAAGTCTTCAAGTTTGCAATCGGAGTCACCTAGTGCAG | 9480 fluorescence intensity (a.u.) |
| TTGTTTTGATTGTCATCCACTACCAACAATCGATATACTCCGGAGTCACCTAGTGCAG | 9920 fluorescence intensity (a.u.) |
| CTTCTCCGACTCCGGCCACCGACCACCGCCCCTGCGTTCCCGGAGTCACCTAGTGCAG | 9920 fluorescence intensity (a.u.) |
| AGATCCCCACGCAGACGCACGCCTCGCTATCCCTCGCCGTCGGAGTCACCTAGTGCAG | 10600 fluorescence intensity (a.u.) |
| GGAGTATTATTGTGCATTTAGTTAGTTGGGATGGCATAAACGGAGTCACCTAGTGCAG | 8810 fluorescence intensity (a.u.) |
| TTCAGCATAATTTCTCCTTCATTATTGGCCTTTTTAATTACGGAGTCACCTAGTGCAG | 9850 fluorescence intensity (a.u.) |
| TTAGCTGTGTGTGTTCTTACGCTTGGGTTGGCGATTGAATCGGAGTCACCTAGTGCAG | 9810 fluorescence intensity (a.u.) |
| CCCTATCCATTAATTACTCGCTTCGTGGTCGGAATCCATGCGGAGTCACCTAGTGCAG | 8200 fluorescence intensity (a.u.) |

2 entries picked at random from the list so far, as already listed:

| Sequence | binding signal |
| --- | --- |
| AGATCCCCACGCAGACGCACGCCTCGCTATCCCTCGCCGTCGGAGTCACCTAGTGCAG | 10600 fluorescence intensity (a.u.) |
| CACCCGATCCACGTGCCTCGTGGGGTTGGTTTGGTTTGGACGGAGTCACCTAGTGCAG | 8440 fluorescence intensity (a.u.) |

Next part:

| Sequence | binding signal |
| --- | --- |
| CCATCCAGCGTCTCTCATGGGCTTTCACAATTTCTGTGAGCGGAGTCACCTAGTGCAG | 8520 fluorescence intensity (a.u.) |
| GGCGAAGTGGTGGGTGCGTTGGGGCGAGGCGGAGCGGTGGCGGAGTCACCTAGTGCAG | 8050 fluorescence intensity (a.u.) |
| CTCCGTGTTGTAGTGTTGTGTAGCAGTAGTCCACCGCTGACGGAGTCACCTAGTGCAG | 8270 fluorescence intensity (a.u.) |
| GCCTCTCGTGGGCCGTCGCCGCCCACCCGCCCGGACACGTCGGAGTCACCTAGTGCAG | 8380 fluorescence intensity (a.u.) |
| CGCGAGGGCGTGGTGGTGGTGGTGGTCGTCATCATCGACGCGGAGTCACCTAGTGCAG | 8440 fluorescence intensity (a.u.) |
| TGCAGATCCCTTAAACCGCCCCTCACCACACGCGCCGTCTCGGAGTCACCTAGTGCAG | 9130 fluorescence intensity (a.u.) |
| CCTCTCTCTCTCTCTCTCTCTCTAGATATCTCTCTCTTTTCGGAGTCACCTAGTGCAG | 8320 fluorescence intensity (a.u.) |
| TATATACTCCCTCCATATTTTAATGTATGACGCCGTTGACCGGAGTCACCTAGTGCAG | 9880 fluorescence intensity (a.u.) |
| CCCTACTCCGTCGTCGCTCGCCTGCTCCGCCGTTCTCCTCCGGAGTCACCTAGTGCAG | 8380 fluorescence intensity (a.u.) |
| CCAATCGTCATCCATGCATGCTGCAACTGTAAGCTTTTCCCGGAGTCACCTAGTGCAG | 9360 fluorescence intensity (a.u.) |
| CTCGCCTCGCCGCAAATCTCACCACTCGCCACCGCCTCCCCGGAGTCACCTAGTGCAG | 8960 fluorescence intensity (a.u.) |
| AATATTTTTTTGAGGTTTTTTGTTGCGTTTAAAATTCAAACGGAGTCACCTAGTGCAG | 8110 fluorescence intensity (a.u.) |
| TTTGGTGGTGTTGGGCACGAGCGCCCTCATTGTGTATAGCCGGAGTCACCTAGTGCAG | 9560 fluorescence intensity (a.u.) |
| CTCCCGCCCGCCTATATAAACTTGTTCGCGCTCGGCTCCTCGGAGTCACCTAGTGCAG | 8960 fluorescence intensity (a.u.) |
| ATTCTGTTATGAACTATGTAAACCTTCTCATGTATATTCACGGAGTCACCTAGTGCAG | 8840 fluorescence intensity (a.u.) |
| ACACTCCTTGATTCTTCTGTATTTCCACTTATTGTTCCAACGGAGTCACCTAGTGCAG | 16200 fluorescence intensity (a.u.) |
| CAGACAGGGATGTTTCGGTTGAGACCTTCGTTTTCATCTCCGGAGTCACCTAGTGCAG | 8330 fluorescence intensity (a.u.) |
| CAGGGGTGGGTTGCGCATCGCCGGAGGCGGCGGGGTTCCGCGGAGTCACCTAGTGCAG | 16200 fluorescence intensity (a.u.) |
| GTTTGGTTGGAGGTCAGGGTGGATGGGGCAGCCCAAAATACGGAGTCACCTAGTGCAG | 9960 fluorescence intensity (a.u.) |
| CACAGCTTCTTAATTACTCCACCTTAATTAATCGATTAATCGGAGTCACCTAGTGCAG | 8680 fluorescence intensity (a.u.) |
| CCTCATCTCATCTCCCGAAATACTAATCCAGCTCGATCGTCGGAGTCACCTAGTGCAG | 9620 fluorescence intensity (a.u.) |
